Results taken from patent US9771340B2, “2-aminothiazole derivatives and methods of preparing and using the same” (Huazhong University of Science & Technology, priority 2011, dated 2017).
Some results were stated once for a whole list of compounds, not compound by compound. For at least one compound, name, drawing or mass did not settle the structure.

Amino acid sequences for entries named in this document (tags omitted).
UniProt P09874, whole entry: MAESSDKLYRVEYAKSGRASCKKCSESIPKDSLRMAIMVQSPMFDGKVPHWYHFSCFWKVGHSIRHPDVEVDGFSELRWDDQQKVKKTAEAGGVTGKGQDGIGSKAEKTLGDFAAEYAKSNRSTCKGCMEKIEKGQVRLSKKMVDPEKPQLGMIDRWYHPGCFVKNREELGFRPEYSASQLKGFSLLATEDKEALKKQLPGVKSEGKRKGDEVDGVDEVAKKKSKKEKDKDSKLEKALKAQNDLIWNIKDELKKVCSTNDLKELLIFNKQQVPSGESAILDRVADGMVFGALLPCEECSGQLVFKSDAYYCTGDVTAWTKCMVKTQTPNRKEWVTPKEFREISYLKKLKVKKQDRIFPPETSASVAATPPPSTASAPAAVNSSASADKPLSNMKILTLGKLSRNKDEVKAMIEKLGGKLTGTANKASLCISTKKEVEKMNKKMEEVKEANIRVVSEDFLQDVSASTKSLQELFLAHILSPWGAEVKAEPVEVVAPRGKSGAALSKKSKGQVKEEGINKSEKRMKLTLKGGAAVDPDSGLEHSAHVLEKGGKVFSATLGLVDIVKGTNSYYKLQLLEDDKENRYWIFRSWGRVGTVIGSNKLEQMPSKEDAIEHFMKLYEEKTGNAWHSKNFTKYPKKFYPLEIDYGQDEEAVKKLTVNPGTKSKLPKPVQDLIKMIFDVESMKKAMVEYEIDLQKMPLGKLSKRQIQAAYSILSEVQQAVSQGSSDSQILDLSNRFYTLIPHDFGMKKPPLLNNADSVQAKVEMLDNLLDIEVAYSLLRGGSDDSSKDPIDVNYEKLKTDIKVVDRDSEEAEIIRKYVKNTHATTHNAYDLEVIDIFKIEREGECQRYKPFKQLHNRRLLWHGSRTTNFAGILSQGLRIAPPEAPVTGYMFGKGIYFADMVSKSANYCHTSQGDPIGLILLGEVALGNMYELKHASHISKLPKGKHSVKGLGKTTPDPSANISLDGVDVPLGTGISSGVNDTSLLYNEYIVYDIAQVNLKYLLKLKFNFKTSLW

Molecular target: T1, PARP-1 (Homo sapiens, UniProt P09874)
T1 construct: purchased R&D 4677-096-K
Experiment: PARP-1 inhibition, universal chromogenic method kit
Type: biochemical
Settings: concentration 1 M (so in the source); FIG. 2

Structure (SMILES)	inhibition rate on the PARP-1
CCC(C(=O)Nc1nc(-c2ccccc2)cs1)N1CCN(c2ccc(OC)cc2)CC1 (centres unmarked) [TJ-M201018, 2-(4-(4-methoxyphenyl)piperazin-1-yl)-N-(4-phenyl-thiazol-2-yl) butyramide]	exceeding 50%
COc1ccc(N2CCN(CC(=O)Nc3nc(-c4ccccc4)cs3)CC2)cc1 [TJ-M201005, 2-(4-(4-methoxyphenyl)piperazin-1-yl)-N-(4-phenyl-thiazol-2-yl) acetamide]	exceeding 50%
